# Results as given in the supplement of paper PMC11409438.
# Structures can show the parent of a compound that is named as a salt. This is one part of the list. Repeats are few or missing, and single values can be far off.
# Tests used:
# [1] = test system: Caenorhabditis elegans ST65 (ncIs13[ajm-1::GFP]); experiment: 'Larvae/adult' ratio (MetaXpress pharynx counts; minimum value 1, so it appears to include adults; growth inhibition read-out); settings: 10 µM; exposure time: 4-5 days from L1 at 20°C
# [2] = test system: Caenorhabditis elegans ST65 (ncIs13[ajm-1::GFP]); experiment: vulvae per adult worm (MAPK/ERK-dependent vulval induction, MetaXpress) (vulvae/adult); higher = more vulval induction (less MAPK/ERK inhibition); settings: 10 µM; exposure time: 4-5 days from L1 at 20°C
SMILES,'Larvae/adult' ratio [1],vulvae per adult worm [2]
CCS(=O)(=O)N1CCN(c2ccc(Nc3ncc(C(N)=O)c(NC4CC4)n3)cc2)CC1,4.5,1.38
CN1CCN(c2ccc(C(=O)Nc3n[nH]c4ccc(Cc5cc(F)cc(F)c5)cc34)c(NC3CCOCC3)c2)CC1 [Entrectinib (RXDX-101)],1.38,0.436
CN(C)C[C@@H]1CCn2cc(c3ccccc32)C2=C(C(=O)NC2=O)c2cn(c3ccccc23)CCO1,1.59,0.838
CCN(CCCOc1ccc2c(Nc3cc(CC(=O)Nc4cccc(F)c4)[nH]n3)ncnc2c1)CCOP(=O)(O)O [Barasertib (AZD1152-HQPA)],2.64,1.09
CCN1CCN(Cc2ccc(Nc3ncc(F)c(-c4cc(F)c5nc(C)n(C(C)C)c5c4)n3)nc2)CC1 [Abemaciclib],1.68,0.86
Nc1ncn([C@@H]2O[C@H](CO)[C@@H](O)[C@H]2O)c(=O)n1 [Azacitidine],2,1
C=CC(=O)Nc1cc2c(Nc3ccc(F)c(Cl)c3)ncnc2cc1OCCCN1CCOCC1 [Canertinib (CI-1033)],2.36,0.917
C[C@@H]1C[C@H]2[C@@H]3CCC4=CC(=O)C=C[C@]4(C)[C@@]3(F)[C@@H](O)C[C@]2(C)[C@@]1(O)C(=O)CO [Dexamethasone (DHAP)],1.68,0.818
"CCCS(=O)(=O)Nc1ccc(F)c(C(=O)c2c[nH]c3ncc(-c4ccc(Cl)cc4)cc23)c1F [Vemurafenib (PLX4032, RG7204)]",2.03,0.972
C=CC(=O)N1CC/C(=C\c2ccc(F)c([N+](=O)[O-])c2)C(=O)/C(=C/c2ccc(F)c([N+](=O)[O-])c2)C1,1.5,0.75
COc1cccc2c1C(=O)c1c(O)c3c(c(O)c1C2=O)CC(O)(C(=O)CO)CC3OC1CC(N)C(O)C(C)O1 (configuration not stated) [Doxorubicin (Adriamycin) HCl],2.11,1.19
O=c1ncn2nc(Sc3ccc(F)cc3F)ccc2c1-c1c(Cl)cccc1Cl,2.03,0.645
O=C(O)c1ccc2c(c1)nc(Nc1cccc(Cl)c1)c1ccncc12 [Silmitasertib (CX-4945)],4.16,1
CC(C)N(CCCNC(=O)Nc1ccc(C(C)(C)C)cc1)C[C@H]1O[C@@H](n2cc(Br)c3c(N)ncnc32)[C@H](O)[C@@H]1O,1.73,0.911
CCC(C)(C)C(=O)O[C@H]1C[C@@H](C)C=C2C=C[C@H](C)[C@H](CC[C@@H]3C[C@@H](O)CC(=O)O3)[C@H]21 [Simvastatin],1.33,0.917
CCC1=C[C@@H]2CN(C1)Cc1c([nH]c3ccccc13)[C@@](C(=O)OC)(c1cc3c(cc1OC)N(C)[C@H]1[C@@](O)(C(=O)OC)[C@H](OC(C)=O)[C@]4(CC)C=CCN5CC[C@]31[C@@H]54)C2 [Vinorelbine Tartrate],1.71,1.29
CS(=O)(=O)CCNCc1ccc(-c2ccc3ncnc(Nc4ccc(OCc5cccc(F)c5)c(Cl)c4)c3c2)o1 [Lapatinib],3.2,1.2
COc1ccc(Cn2ccc3ccc(C(=O)NO)cc32)cc1,2.7,0.9
O=C(c1cccc(Cl)c1F)N1CCN(Cc2cccc(Nc3nccs3)n2)CC1,2.03,0.667
N#Cc1ccnc(N2C(=O)CC[C@H]2C(=O)N(c2cncc(F)c2)[C@H](C(=O)NC2CC(F)(F)C2)c2ccccc2Cl)c1 [Ivosidenib (AG-120)],4.47,1.6
Cc1cc(Nc2cc(N3CCN(C)CC3)nc(/C=C/c3ccccc3)n2)n[nH]1,2.07,0.966
NC(=O)NO [Hydroxyurea],1.67,1
O=C1CCC(N2C(=O)c3ccccc3C2=O)C(=O)N1 (configuration not stated) [Thalidomide],2.23,1.17
CCn1c(-c2nonc2N)nc2c(C#CC(C)(C)O)ncc(OC[C@H]3CCCNC3)c21,2.75,1
CC1(N)CCN(c2cnc(-c3cccc(Cl)c3Cl)c(N)n2)CC1 [SHP099 dihydrochloride],1.72,0.86
COc1ccc(-c2ccc3c(N4CCOC[C@@H]4C)nc(N4CCOC[C@@H]4C)nc3n2)cc1CO,1.74,0.0263

# Single records, from the list above. Values in the order: 'Larvae/adult' ratio [1]	vulvae per adult worm [2]
# C=CC(=O)Nc1cc2c(Nc3ccc(F)c(Cl)c3)ncnc2cc1OCCCN1CCOCC1 [Canertinib (CI-1033)] as listed: 2.36	0.917
# CCC(C)(C)C(=O)O[C@H]1C[C@@H](C)C=C2C=C[C@H](C)[C@H](CC[C@@H]3C[C@@H](O)CC(=O)O3)[C@H]21 [Simvastatin] as listed: 1.33	0.917
